# Values of other authors, collected in patent US20250057764A1, “COMPOSITIONS, METHODS AND SYSTEMS FOR AEROSOL DRUG DELIVERY” (ASTRAZENECA AB, priority 2021, published 2025).
# At least one structure is not confirmed: it was looked up by name or label, or the drawing left a doubt.
# Conditions: cited from earlier work
compound,measurement,value
FC=CC(F)(F)F [HFO-1234ze],Boiling Point,−19.0 °C
same,Dipole Moment,1.44 Debye
